PubChem BioAssay AID602196 – INSERM, 2012
Purpose: 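Modifiers of cisplatin sensitivity in A549 cells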. Cell system: human A549 lung cancer cells. Reagents: siRNA pair against human genes. Timing: 48 h transfection before cisplatin; time from cisplatin to read-out not stated. Treatment: cisplatin at a dose killing half of control-siRNA cells; exact dose and duration not given. Measurement: 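Shift in cisplatin death relative to control siRNA, from -50 (all cells die) to +50 (no cells die); siRNAs harmful on their own scored 0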. Direction: two-siRNA summed score (-2 to +2): higher = both siRNAs protect from cisplatin killing; -2 means both sensitise. Rule for the call: 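siRNAs harmful alone (LDH or WST-1) get 0; others get +1 for less and -1 for more cisplatin killing; genes are active when the two siRNAs give the same sign, summing to ±2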. Meaning of the calls: active = both siRNAs shift cisplatin killing the same way; inactive = no consistent shift, or siRNA harmful alone.
The deposit covers about 23,000 reagents; this is a random part of them. 455 of all reagents (2%) count as active. 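Active includes both protection and sensitisation; some change values fall well beyond the stated -50 to +50 range.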 Reagents against one gene are numbered here. Further read-outs or replicates are left out here. No sequences are given here. Not stated in the record: the amount of reagent.

KIAA1442
- two-siRNA summed score (-2 to +2): 0
- activity call: inactive

MCTP2
- two-siRNA summed score (-2 to +2): 0
- activity call: inactive

METTL16
- two-siRNA summed score (-2 to +2): -1
- activity call: inactive

POLR3B
- two-siRNA summed score (-2 to +2): 0
- activity call: inactive

JAZF1
- two-siRNA summed score (-2 to +2): -1
- activity call: inactive

CHCHD4
- two-siRNA summed score (-2 to +2): 0
- activity call: inactive

LINGO1
- two-siRNA summed score (-2 to +2): 0
- activity call: inactive

CLCNKB
- two-siRNA summed score (-2 to +2): -1
- activity call: inactive

PLK2
- two-siRNA summed score (-2 to +2): 0
- activity call: inactive

DCAF4L2
- two-siRNA summed score (-2 to +2): 1
- activity call: inactive

ENC1
- two-siRNA summed score (-2 to +2): 0
- activity call: inactive

PDLIM2
- two-siRNA summed score (-2 to +2): 0
- activity call: inactive

TMEM177
- two-siRNA summed score (-2 to +2): -1
- activity call: inactive

TSPAN31
- two-siRNA summed score (-2 to +2): 0
- activity call: inactive

KIAA1183
- two-siRNA summed score (-2 to +2): 0
- activity call: inactive

LOC441076
- two-siRNA summed score (-2 to +2): 0
- activity call: inactive

WNT8B
- two-siRNA summed score (-2 to +2): 0
- activity call: inactive

SOCS4
- two-siRNA summed score (-2 to +2): 0
- activity call: inactive

FOXA1
- two-siRNA summed score (-2 to +2): 0
- activity call: inactive

PCDHGB4
- two-siRNA summed score (-2 to +2): 0
- activity call: inactive

C8orf17
- two-siRNA summed score (-2 to +2): 0
- activity call: inactive

STARD7
- two-siRNA summed score (-2 to +2): 1
- activity call: inactive

ZFAND1
- two-siRNA summed score (-2 to +2): 0
- activity call: inactive

LOC134111
- two-siRNA summed score (-2 to +2): 0
- activity call: inactive

CYP4F3
- two-siRNA summed score (-2 to +2): 0
- activity call: inactive

TMEM207
- two-siRNA summed score (-2 to +2): 0
- activity call: inactive

LOC389425
- two-siRNA summed score (-2 to +2): 0
- activity call: inactive

LOC441760
- two-siRNA summed score (-2 to +2): 0
- activity call: inactive

SCAMP5
- two-siRNA summed score (-2 to +2): 0
- activity call: inactive

LOC441419
- two-siRNA summed score (-2 to +2): 0
- activity call: inactive

DNAH17 #1
- two-siRNA summed score (-2 to +2): 0
- activity call: inactive

DNAH17 #2
- two-siRNA summed score (-2 to +2): 0
- activity call: inactive
